{"sequences": {"note": "The chains behind the UniProt entries cited, without tags or fusion partners.", "UniProt P04483, whole entry, added parts left off": "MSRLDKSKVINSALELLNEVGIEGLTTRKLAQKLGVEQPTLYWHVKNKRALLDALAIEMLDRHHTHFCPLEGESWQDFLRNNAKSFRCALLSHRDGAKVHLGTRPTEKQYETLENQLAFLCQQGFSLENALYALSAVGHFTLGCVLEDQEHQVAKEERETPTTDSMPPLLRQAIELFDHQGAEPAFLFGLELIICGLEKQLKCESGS"}, "source": "patent US20050233457A1", "about": "“Recombining viral vectors for the tetracycline-regulated expression of genes” (priority 2002, published 2005)", "key": {"[1]": {"system": "HT29 colon carcinoma cells", "assay": "Ad.3r-luc infected HT29 cells incubated with human sera (tetracycline screening)", "assay_type": "cell-based", "conditions": "doxycycline 2 μg/ml, HT29, Ad.3r-luc"}, "tTA fusion protein": {"target": "T1, tTA fusion protein (Escherichia coli, UniProt P04483)", "T1 construct": "expressed in transfected cells; host or cells: HT29 human colon carcinoma cells infected with the recombinant adenovirus Ad.3r-luc; the tTA cassette comes from plasmid pBIG 3r", "assay": "Western blot of tTA transactivator in infected HT29 cells", "assay_type": "cell-based, human", "conditions": "HT29 infected with Ad.3r-luc"}, "murine splenocytes": {"system": "murine splenocytes", "assay": "IFN-γ induction in splenocytes by conditioned supernatant (IFN-γ ELISA)", "assay_type": "cell-based", "conditions": "conditioned media of Ad.3r-scIL12 infected HT29"}, "[2]": {"system": "HT29 colon carcinoma cells", "assay": "Luciferase expression in lysates of adenovirally infected HT29 cells", "assay_type": "cell-based, human", "conditions": "HT29, doxycycline 2 μg/ml", "protocol": "[…], Colo205, SkCO-1, AsPc-1, HepG2, MCF-7, BT-20, HeLa, RT4 and U266 cells were seeded in six and twelve (U266) vial-plates at a concentration of 1×10^6 cells per cavity for 6 hours before transfection. The larger HeLa, RT-4 and 293 cells were seeded in a concentration of 5×10^5 cells per vial. U266 myeloma cells were allowed to grow in suspension culture and infected. Purified viral particles were diluted in media without supplementation and the cells were exposed to 500 μl of the suitable virus dilution per vial for 1 hour. After removal of the infectious supernatant, complete media which had been supplemented with different concentrations of doxycycline, were added. The media were changed every 24 hours.\n24 hours after infection with Ad.CMV-luc or Ad.3r-luc, the cells were harvested with 150 μl of cell culture lysis reagent according to the manufacturer's (Promega) instructions. The luciferase activity in 20 μl of cell lysate was measured using a Bertold LB9507 luminometer and luciferase assay substrate (Promega). […] The protein concentration was determined using the DC protein assay kit (BioRad, Hercules, Calif.).\nHuman colon carcinoma cells HT29 are extremely receptive for adenoviral transduction, as has been shown previously (A. Block et al. Cancer Gene Therapy 7 (2000) 438-445). […] The luciferase activity was determined in cell lysates in relation to the dissolved cell protein. […]"}}, "note": "“Also recorded” adds a separate entry of the source. For at least one compound, name, drawing or mass did not settle the structure."}
{"smiles": "C[C@H]1c2cccc(O)c2C(=O)C2=C(O)[C@]3(O)C(=O)C(C(N)=O)=C(O)[C@@H](N(C)C)[C@@H]3[C@@H](O)[C@@H]21", "note": "[doxycycline]", "values": [{"measurement": "effect of supplementation of human sera with doxycycline on transgene expression", "setting": "[1]", "value": "extremely efficient suppression"}, {"measurement": "effect of increasing doxycycline concentrations on intracellular tTA", "setting": "tTA fusion protein", "value": "down regulation"}, {"measurement": "effect of doxycycline addition on IFN-γ induction", "setting": "murine splenocytes", "value": "suppression of IFN-γ to a background level; also recorded: decrease in interferon-γ to a background level"}, {"measurement": "interference with adenoviral gene expression using the constitutive CMV promoter", "setting": "[2]", "value": "did not interfere"}]}
